Test results reported in patent US20250011421A1 (GUANGDONG ANNPO BIOTECHNOLOGY, published 2025).
Results are given in words; binding and its absence hold for the method and conditions named. Some binding calls cover weakened binding; strength is not graded here. One block for each binder: values may come before it.

Experiments:
[1] = target: T1, hTIGIT on the surface of 293F-hTIGIT-short #1B1 cells (human) (UniProt Q495A1); test: flow cytometry on cells expressing hTIGIT, method as in Example 3
T1 sequence (looked up): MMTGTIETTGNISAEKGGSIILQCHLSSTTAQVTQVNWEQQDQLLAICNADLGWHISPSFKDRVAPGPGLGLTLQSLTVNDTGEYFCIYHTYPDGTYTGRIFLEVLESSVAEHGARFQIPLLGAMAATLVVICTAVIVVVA

[2] = target: T1, hTIGIT on the surface of 293F-hTIGIT-short #1B1 cells (human); test: flow cytometry on 293F-hTIGIT-short #1B1 cells

- binding [1]: binds
B1: hTIGIT humanized antibody h60H5 (antibody, human IgG1, V domains shown)
VH: QVQLVQSGAEVKKPGASVKVSCKTSGYTFTEYTMHWVRQAPGQRLEWIGGINPNNGGTSYNQKFQGRVTITVDTSASTAYMELSSLRSEDTAVYYCARSGNWDYAMDYWGQGTTVTVSS
VL: DIQMTQSPSSMSASVGDRVTITCKASQHVSTAVVWYQQKPGKAPKLLIYSASYRYTGVPDRFSGSGSGTDFTFTISSLQPEDIATYYCQQHYITPWTFGGGTKLEIKR
notes: also called 60H5-H2L1

- binding [2]: binds
B2: hTIGIT mouse-derived antibody m51C1 (antibody, V domains shown)
VH: QVQLQQSGAELVKPGASVKLSCKASGYTFTEYFIHWIKQKSGQGLEWIGWFYPGSGSIKYNERFKDKATLTADKSSSTVYMELSRLTSEDSAVYFCARHEMRYGNYVLDYWGQGTTLTVSS
VL: QAVVTQESALTTSPGETVTLTCRSSTGAVTTRNYANWVQEKPDHLFTGLIGGTNNRVPGVPARFSGSLIGDKAALTITGAQTEDEAIYFCGLWYSNHLVFGGGTKLTVLG
notes: Mouse monoclonal antibody from a hybridoma

- binding [1]: binds
B3: hTIGIT humanized antibody h51C1 (antibody, human IgG1, V domains shown)
VH: QVQLVQSGAEVKKPGASVKVSCKASGYTFTEYFIHWVRQAPGQGLEWIGWFYPGSGSIKYNERFKDRVTLTADTSISTAYMELSRLRSDDTAVYYCARHEMRYGNYVLDYWGQGTTVTVSS
VL: QAVVTQEPSLTVSPGGTVTLTCRSSTGAVTTRNYANWVQQKPGQAPRGLIGGTNNRVPGVPARFSGSLLGGKAALTLSGAQPEDEAEYYCGLWYSNHLVFGGGTKLTVLG
notes: also called 51C1-H2L2
